Earlier results as cited in publication PMC9865396, “The Effect of the Particle Size Reduction on the Biorelevant Solubility and Dissolution of Poorly Soluble Drugs with Different Acid-Base Character” (Pharmaceutics, 2023).
Structures can show the parent of a compound that is named as a salt.

conditions: cited from earlier work

SMILES	BCS class
COc1ccc(Cc2nccc3cc(OC)c(OC)cc23)cc1OC [PAP original, papaverine hydrochloride]	BCS II
O=C(O)c1cccnc1Nc1cccc(C(F)(F)F)c1 [NIF original, Niflumic acid]	BCS II
NS(=O)(=O)c1cc(C(=O)O)c(NCc2ccco2)cc1Cl [FUR original, furosemide]	BCS IV
